These are yes or no findings as the source states them, for the method shown. In cells and extracts the contact can be indirect. Some entries that bind do so weakly or less than the wild type.
T1: Rad27 (coimmunoprecipitation) (yeast) (UniProt P26793)
T1 sequence: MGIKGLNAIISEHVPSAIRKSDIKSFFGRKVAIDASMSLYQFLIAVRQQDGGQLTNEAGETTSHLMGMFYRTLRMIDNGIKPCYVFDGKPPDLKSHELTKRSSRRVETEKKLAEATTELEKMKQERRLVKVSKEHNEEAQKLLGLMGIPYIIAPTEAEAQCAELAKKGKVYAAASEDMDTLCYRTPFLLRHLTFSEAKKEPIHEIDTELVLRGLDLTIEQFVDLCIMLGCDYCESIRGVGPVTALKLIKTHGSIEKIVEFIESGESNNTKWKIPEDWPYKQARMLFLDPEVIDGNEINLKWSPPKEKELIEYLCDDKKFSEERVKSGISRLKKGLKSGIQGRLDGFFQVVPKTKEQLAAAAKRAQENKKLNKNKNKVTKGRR

T2: Mus81 (coimmunoprecipitation, data not shown) (S. cerevisiae) (UniProt Q04149)
T2 sequence: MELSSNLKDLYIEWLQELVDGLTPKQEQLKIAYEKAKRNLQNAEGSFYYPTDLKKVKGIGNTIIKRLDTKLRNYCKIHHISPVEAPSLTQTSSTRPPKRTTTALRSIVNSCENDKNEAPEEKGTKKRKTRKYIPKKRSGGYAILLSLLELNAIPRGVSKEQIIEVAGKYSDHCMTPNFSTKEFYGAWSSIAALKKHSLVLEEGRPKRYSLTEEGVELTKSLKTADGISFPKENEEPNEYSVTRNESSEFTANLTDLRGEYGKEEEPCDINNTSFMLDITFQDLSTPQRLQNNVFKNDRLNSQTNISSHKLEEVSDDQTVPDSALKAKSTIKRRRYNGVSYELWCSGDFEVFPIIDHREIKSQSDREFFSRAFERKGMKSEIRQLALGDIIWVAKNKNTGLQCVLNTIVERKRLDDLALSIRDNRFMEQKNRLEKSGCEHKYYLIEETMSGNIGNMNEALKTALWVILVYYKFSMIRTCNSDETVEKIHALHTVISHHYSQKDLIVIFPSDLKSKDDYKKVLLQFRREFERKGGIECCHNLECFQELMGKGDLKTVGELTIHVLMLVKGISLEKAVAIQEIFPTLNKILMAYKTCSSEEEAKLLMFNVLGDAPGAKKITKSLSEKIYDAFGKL


What was measured:
[1] = biological target: T1, Rad27 (coimmunoprecipitation) (yeast); assay: co-IP; told in the discussion only; format not told
[2] = biological target: T2, Mus81 (coimmunoprecipitation, data not shown) (S. cerevisiae); assay: co-IP; data not shown; format not told

Row | binding [1] | binding [2] | Binder
1 | no binding |  | Mms4 (coimmunoprecipitation with Rad27) (protein, UniProt P38257 1-691) MSQIVDFVEDKDSRNDASIQIIDGPSNVEIIALSESMDQDECKRAHVSSAEMIPSSPQRKSVSNDVENVDLNKSIELSAPFFQDISISKLDDFSTTVNSIIDSSLRNENNAKGNAKKLLDDLISDEWSADLESSGKKHNKSQYNLRDIAEKWGVQSLKNPEPIAVDCEYKTQGIGKTNSDISDSPKSQIGAADILFDFPLSPVKHENPTEEKHNSIANENSSPDNSLKPAGKQNHGEDGTSMAKRVYNKGEDEQEHLPKGKKRTIALSRTLINSTKLPDTVELNLSKFLDSSDSITTDVLSTPAKGSNIVRTGSQPIFSNANCFQEAKRSKTLTAEDPKCTKNTAREVSQLENYIAYGQYYTREDSKNKIRHLLKENKNAFKRVNQIYRDNIKARSQMIIEFSPSLLQLFKKGDSDLQQQLAPAVVQSSYNDSMPLLRFLRKCDSIYDFSNDFYYPCDPKIVEENVLILYYDAQEFFEQYTSQKKELYRKIRFFSKNGKHVILILSDINKLKRAIFQLENEKYKARVEQRLSGTEEALRPRSKKSSQVGKLGIKKFDLEQRLRFIDREWHVKIHTVNSHMEFINSLPNLVSLIGKQRMDPAIRYMKYAHLNVKSAQDSTETLKKTFHQIGRMPEMKANNVVSLYPSFQSLLEDIEKGRLQSDNEGKYLMTEAVEKRLYKLFTCTDPNDTIE
2 |  | binds | GST-Rad27 (natural protein, yeast, UniProt P26793 1-382, looked up) MGIKGLNAIISEHVPSAIRKSDIKSFFGRKVAIDASMSLYQFLIAVRQQDGGQLTNEAGETTSHLMGMFYRTLRMIDNGIKPCYVFDGKPPDLKSHELTKRSSRRVETEKKLAEATTELEKMKQERRLVKVSKEHNEEAQKLLGLMGIPYIIAPTEAEAQCAELAKKGKVYAAASEDMDTLCYRTPFLLRHLTFSEAKKEPIHEIDTELVLRGLDLTIEQFVDLCIMLGCDYCESIRGVGPVTALKLIKTHGSIEKIVEFIESGESNNTKWKIPEDWPYKQARMLFLDPEVIDGNEINLKWSPPKEKELIEYLCDDKKFSEERVKSGISRLKKGLKSGIQGRLDGFFQVVPKTKEQLAAAAKRAQENKKLNKNKNKVTKGRR

— article PMC4330386 (Nucleic Acids Research, 2015)
